Reference: paper PMC2905391

By UniProt entry, the sequences of proteins in these tests, tags left out. Where a name states a change or a piece, a line headed by the entry shows the natural chain unless it says otherwise.
UniProt P13020: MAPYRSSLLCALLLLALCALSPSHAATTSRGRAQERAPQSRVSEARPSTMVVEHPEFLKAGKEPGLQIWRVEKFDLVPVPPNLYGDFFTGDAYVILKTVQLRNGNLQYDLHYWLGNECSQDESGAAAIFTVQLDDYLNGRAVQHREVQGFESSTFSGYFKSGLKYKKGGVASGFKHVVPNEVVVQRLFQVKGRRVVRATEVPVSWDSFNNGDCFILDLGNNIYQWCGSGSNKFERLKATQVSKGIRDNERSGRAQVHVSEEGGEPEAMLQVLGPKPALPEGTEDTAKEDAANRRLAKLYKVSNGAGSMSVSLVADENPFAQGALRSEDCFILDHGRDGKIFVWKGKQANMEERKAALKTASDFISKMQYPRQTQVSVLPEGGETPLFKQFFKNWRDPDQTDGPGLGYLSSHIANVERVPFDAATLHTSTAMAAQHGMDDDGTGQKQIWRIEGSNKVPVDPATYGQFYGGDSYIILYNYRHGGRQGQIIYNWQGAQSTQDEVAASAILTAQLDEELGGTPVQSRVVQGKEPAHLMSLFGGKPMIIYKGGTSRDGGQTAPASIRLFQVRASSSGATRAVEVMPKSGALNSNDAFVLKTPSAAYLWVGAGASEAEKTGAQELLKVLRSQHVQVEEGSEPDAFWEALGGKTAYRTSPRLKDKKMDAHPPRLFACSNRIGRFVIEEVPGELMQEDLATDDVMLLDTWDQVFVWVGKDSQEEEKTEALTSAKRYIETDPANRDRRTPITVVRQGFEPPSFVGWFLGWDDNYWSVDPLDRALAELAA

Molecular target: T1, p55 (MAGUK protein) (mouse (endogenous in inner ear)) (UniProt P70290)
T1 sequence: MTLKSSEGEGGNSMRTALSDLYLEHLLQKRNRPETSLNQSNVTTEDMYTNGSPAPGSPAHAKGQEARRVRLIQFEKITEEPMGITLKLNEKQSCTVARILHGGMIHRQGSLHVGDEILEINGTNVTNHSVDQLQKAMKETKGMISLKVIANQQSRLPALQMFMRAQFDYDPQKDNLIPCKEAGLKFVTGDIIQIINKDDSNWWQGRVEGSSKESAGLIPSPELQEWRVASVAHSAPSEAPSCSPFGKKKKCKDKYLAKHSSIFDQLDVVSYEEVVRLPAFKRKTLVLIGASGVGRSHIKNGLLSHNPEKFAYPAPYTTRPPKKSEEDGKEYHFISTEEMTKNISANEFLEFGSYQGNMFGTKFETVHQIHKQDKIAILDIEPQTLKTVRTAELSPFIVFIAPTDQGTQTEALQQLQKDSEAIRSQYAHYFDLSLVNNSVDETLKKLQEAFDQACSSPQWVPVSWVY
Assay: affinity purification with mass spectrometry; immunoprecipitation from mouse inner ear (cochlea P7-P8) lysate with anti-p55 antibody linked to agarose beads, normal goat IgG as negative control; NP40 lysis buffer (150 mM NaCl, 1% NP40, 50 mM Tris pH 8.0), overnight at 4°C; eluted complexes analysed by LC-MS/MS (methods: LC-MALDI TOF/TOF)

binding: binds
Substance: gelsolin (from UniProt P13020)

Results are given in words; binding and its absence hold for the method and conditions named. In cells and extracts the contact can be indirect. A yes stands for co-enrichment or nearness to the bait. Other partners may have been found.
